Data taken from publication PMC10290635.
No constants are given. Whether binding was seen depends on the method and setting. In cells and extracts the contact can be indirect. Some binding calls cover weakened binding; strength is not graded here.

Amino acid sequences for entries named in this document (tags omitted).
UniProt Q99996: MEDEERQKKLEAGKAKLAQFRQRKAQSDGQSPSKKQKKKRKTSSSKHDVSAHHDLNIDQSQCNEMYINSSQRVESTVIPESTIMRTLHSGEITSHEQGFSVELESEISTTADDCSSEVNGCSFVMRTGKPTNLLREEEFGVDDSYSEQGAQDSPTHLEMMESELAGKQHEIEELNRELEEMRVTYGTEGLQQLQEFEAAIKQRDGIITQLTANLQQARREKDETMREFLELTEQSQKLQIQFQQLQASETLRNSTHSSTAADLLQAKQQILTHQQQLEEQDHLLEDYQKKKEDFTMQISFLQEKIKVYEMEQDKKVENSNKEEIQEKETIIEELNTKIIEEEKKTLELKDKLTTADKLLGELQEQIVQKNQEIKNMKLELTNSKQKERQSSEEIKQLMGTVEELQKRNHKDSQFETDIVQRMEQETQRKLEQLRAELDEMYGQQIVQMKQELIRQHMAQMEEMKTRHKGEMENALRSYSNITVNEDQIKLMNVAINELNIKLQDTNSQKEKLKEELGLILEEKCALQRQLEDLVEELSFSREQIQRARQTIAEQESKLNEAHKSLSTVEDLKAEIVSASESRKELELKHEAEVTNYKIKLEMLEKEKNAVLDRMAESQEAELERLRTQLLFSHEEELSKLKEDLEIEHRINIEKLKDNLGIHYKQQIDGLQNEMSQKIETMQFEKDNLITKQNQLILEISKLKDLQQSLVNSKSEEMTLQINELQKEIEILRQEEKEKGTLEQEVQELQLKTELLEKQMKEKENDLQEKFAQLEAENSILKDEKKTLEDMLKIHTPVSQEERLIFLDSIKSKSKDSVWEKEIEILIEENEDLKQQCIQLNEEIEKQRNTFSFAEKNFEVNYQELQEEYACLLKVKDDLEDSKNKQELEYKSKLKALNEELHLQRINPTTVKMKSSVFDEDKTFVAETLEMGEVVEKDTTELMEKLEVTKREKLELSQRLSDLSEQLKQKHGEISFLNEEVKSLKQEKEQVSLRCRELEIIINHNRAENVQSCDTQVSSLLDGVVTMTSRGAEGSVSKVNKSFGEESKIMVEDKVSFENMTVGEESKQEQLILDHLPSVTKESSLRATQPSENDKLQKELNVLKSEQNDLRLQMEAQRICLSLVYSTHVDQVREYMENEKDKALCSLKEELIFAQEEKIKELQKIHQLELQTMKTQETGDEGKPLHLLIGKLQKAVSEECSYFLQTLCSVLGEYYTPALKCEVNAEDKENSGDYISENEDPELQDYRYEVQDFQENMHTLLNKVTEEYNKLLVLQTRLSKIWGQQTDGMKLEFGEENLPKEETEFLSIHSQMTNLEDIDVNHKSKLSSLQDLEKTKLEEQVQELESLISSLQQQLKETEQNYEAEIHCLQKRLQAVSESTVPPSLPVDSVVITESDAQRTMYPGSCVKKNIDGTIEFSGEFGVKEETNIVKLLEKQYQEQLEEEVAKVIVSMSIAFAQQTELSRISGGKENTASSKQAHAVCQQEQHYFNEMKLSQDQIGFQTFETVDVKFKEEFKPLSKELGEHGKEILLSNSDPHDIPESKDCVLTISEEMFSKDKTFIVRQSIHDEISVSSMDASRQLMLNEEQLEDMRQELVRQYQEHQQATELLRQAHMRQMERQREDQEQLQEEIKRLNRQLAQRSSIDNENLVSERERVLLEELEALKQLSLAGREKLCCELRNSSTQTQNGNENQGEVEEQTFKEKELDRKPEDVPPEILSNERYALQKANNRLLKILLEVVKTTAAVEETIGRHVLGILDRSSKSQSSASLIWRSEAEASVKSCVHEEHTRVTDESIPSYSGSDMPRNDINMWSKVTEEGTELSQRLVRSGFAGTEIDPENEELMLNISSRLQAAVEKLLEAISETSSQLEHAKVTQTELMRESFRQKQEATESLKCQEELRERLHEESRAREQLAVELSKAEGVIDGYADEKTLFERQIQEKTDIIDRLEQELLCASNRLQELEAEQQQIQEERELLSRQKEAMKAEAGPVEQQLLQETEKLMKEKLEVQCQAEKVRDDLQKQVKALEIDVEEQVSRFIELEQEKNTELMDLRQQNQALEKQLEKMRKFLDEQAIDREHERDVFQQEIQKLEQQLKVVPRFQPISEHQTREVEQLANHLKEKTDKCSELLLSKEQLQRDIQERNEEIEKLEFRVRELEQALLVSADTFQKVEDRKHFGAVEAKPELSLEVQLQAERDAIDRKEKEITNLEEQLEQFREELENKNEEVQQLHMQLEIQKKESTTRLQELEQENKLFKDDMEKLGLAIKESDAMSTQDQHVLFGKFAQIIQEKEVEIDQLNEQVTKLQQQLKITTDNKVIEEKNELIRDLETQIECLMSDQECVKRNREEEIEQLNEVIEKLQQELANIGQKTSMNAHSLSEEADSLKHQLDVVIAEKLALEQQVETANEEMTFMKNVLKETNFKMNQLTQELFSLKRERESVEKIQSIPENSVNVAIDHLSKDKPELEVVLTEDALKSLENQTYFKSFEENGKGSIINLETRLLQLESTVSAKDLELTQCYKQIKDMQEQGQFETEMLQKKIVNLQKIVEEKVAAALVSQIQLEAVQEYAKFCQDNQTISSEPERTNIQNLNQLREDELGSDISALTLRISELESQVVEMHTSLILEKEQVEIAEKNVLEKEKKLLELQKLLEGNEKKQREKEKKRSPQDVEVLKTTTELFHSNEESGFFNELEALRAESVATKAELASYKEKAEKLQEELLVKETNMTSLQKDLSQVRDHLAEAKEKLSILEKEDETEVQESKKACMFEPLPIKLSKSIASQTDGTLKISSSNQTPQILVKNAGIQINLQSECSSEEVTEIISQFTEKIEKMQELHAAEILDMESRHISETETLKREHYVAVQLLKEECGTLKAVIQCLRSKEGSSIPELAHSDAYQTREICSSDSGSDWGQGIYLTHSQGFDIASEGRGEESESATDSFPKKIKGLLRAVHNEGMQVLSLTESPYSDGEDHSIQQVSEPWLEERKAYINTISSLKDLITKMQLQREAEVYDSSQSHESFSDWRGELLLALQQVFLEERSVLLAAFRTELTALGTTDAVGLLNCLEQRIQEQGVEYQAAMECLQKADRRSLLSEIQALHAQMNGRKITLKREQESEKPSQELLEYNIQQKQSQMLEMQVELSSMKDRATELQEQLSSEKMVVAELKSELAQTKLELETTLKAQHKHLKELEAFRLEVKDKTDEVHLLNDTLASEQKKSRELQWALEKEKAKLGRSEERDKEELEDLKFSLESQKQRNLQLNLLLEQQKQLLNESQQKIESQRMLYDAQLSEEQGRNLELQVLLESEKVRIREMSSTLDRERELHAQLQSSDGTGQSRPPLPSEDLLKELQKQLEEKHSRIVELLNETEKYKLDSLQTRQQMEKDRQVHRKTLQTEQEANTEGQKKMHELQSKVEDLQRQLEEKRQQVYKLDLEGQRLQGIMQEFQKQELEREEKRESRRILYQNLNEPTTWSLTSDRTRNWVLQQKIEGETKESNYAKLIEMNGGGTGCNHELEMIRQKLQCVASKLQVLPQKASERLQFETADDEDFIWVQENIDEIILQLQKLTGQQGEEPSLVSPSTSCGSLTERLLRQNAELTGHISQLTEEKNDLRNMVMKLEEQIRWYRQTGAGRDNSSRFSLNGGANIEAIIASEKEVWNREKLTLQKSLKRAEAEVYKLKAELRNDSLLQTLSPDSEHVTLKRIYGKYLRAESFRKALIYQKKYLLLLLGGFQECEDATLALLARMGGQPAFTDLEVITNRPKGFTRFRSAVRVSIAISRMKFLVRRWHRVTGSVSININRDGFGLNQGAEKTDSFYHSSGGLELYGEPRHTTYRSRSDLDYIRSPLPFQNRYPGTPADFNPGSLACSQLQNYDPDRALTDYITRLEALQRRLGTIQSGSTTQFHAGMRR
UniProt Q02156: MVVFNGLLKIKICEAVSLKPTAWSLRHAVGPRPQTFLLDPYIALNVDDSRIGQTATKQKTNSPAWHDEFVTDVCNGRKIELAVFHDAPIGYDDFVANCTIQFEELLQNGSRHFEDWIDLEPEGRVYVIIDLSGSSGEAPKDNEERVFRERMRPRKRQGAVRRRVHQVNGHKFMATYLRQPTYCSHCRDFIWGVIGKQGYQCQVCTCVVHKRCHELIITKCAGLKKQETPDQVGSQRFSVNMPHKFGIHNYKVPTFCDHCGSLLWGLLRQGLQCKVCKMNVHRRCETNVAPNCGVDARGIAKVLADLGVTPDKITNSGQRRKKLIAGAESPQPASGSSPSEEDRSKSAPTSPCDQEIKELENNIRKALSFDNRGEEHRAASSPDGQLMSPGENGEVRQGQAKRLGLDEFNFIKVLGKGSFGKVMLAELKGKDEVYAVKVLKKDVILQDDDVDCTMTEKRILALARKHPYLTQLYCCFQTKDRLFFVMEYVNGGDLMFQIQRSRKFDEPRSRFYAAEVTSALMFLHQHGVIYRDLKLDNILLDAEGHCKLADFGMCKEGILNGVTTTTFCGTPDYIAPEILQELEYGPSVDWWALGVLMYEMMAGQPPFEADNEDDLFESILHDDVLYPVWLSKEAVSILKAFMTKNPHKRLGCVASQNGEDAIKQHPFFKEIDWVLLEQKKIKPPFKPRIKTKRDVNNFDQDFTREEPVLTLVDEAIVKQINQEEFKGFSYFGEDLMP

Tests used:
[1] = target: AKAP9 (human (endogenous in DLD1 and SW480)) (UniProt Q99996); assay: co-IP; endogenous; DLD1 and SW480 lysates (20 mM Tris-HCl pH 7.5, 150 mM NaCl, 1.0% Triton X-100) immunoprecipitated with an anti-AKAP9 antibody overnight at 4 °C, Protein G-Sepharose, IgG as negative control, Western blot
[2] = target: Myc-tagged full-length PDE4DIP (phosphodiesterase 4D interacting protein) (human) (UniProt Q5VU43); assay: co-IP; lysates of DLD1 and SW480 cells transfected with the Myc-tagged PDE4DIP plasmid, immunoprecipitated with an anti-Myc antibody, Western blot of the endogenous partner

Substance: PDE4DIP (endogenous) (from UniProt Q5VU43 1-2346)
- binding [1]: binds

Substance: PKCε (from UniProt Q02156 1-737) (enzyme)
- binding [2]: binds
- binding [1]: binds
